Measurements: PubChem BioAssay AID493014 (National Center for Advancing Translational Sciences (NCATS), 2011)
The list shows a part of the results. These are further read-outs of the screen, such as a control signal, another cell line or another target. No call is given for them. The list favours compounds with an active or inconclusive main result. Words in brackets tell the shape of the fitted curve; partial curves, single points and poor fits give uncertain potencies.

Assay: qHTS Assay to Find Inhibitors of Chronic Active B-Cell Receptor Signaling
Details: ABC-DLBCL IkBa-CBG/CBR reporter, luminescence ratio (green luciferase fused to IkBa over red control in TMD8 lymphoma cells), 4 h
Procedure, shortened: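 Compounds up to 46 uM were incubated four hours with TMD8 cells whose green CBG68 luciferase is fused to IkappaBalpha; red CBR luminescence normalised the signal, and concentration-effect curves were fitted to fusion, red and ratio data.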

[1] = measured here: CBR red luminescence, cell number
[2] = measured here: IkBa-CBG green luminescence

Row | Structure (SMILES) | AC50 [1] | AC50 [2]
1 | Cc1cccc(-n2ncc3c(N(C)C4CCCCC4)ncnc32)c1 | 11.2 µM [rising, partial curve, poor fit] | –
2 | COC1(OC)C(/C=C/c2ccc(Cl)cc2)C(C#N)(C#N)C1(OC)OC (centres undefined) | 5.17 µM [falling, full curve] | 6.51 µM [rising, partial curve]
3 | Cc1ccc(-c2ccc(C(=O)Nc3cccc(F)c3)o2)c2ccccc12 | 23.1 µM [falling, single point] | –
4 | O=C(CN1CCOCC1)NNC(=O)c1ccc(Cl)cc1 | 25.9 µM [rising, single point] | –
5 | Cc1ccc(C)c2[nH]c(=O)c(CN(CC3CCCO3)C(=S)NCc3ccco3)cc12 (centres undefined) | 35.5 µM [falling, single point] | –
6 | O=S(=O)(c1cccc(-c2nnc(SCc3nc4ccccc4s3)o2)c1)N1CCOCC1 | 35.5 µM [falling, single point] | –
7 | O=C(Nc1ccccc1-c1ccccc1)C1CCC1 | 0.708 µM [rising, full curve, poor fit] | –
8 | COc1ccccc1NC(=O)COc1ccc2ccccc2c1 | 15.8 µM [falling, partial curve, poor fit] | –
9 | Cc1ccc(-c2nnc(Nc3ccc(Br)cc3)c3ccccc23)cc1S(=O)(=O)N1CCOCC1 | 3.55 µM [falling, full curve] | –
10 | CSCCC(NS(=O)(=O)c1ccc(Cl)cc1)C(=O)OCC(=O)c1ccc(F)cc1 (centres undefined) | 0.13 µM [rising, full curve] | –
11 | COc1cc(-c2nc(-c3ccc(NC(=O)c4ccc(Br)o4)cc3)no2)cc(OC)c1OC | 25.9 µM [rising, partial curve, poor fit] | –
12 | c1ccc(Cc2nnc(Sc3ccccc3)c3ccccc23)cc1 | 14.1 µM [falling, partial curve] | –
13 | CSc1cccc(NC(=O)c2ccccn2)c1 | 35.5 µM [falling, single point] | –
14 | O=C(Nc1cccc(NC(=O)c2ccco2)c1)c1ccc2c(c1)OCCO2 | 7.08 µM [falling, partial curve] | –
15 | O=C(CN1C(=O)/C(=C\c2cccc(Cl)c2)Sc2ccccc21)NCCCN1CCOCC1 | 0.794 µM [falling, full curve, poor fit] | –
16 | COc1ccc(CCNC(=O)CSc2nc3cc(Cl)ccc3o2)cc1OC | 6.51 µM [falling, single point] | –
17 | O=C(CSc1nc2ccccc2c(=O)[nH]1)c1ccc(O)cc1O | 35.5 µM [falling, single point] | –
18 | C[C@]12CC[C@@H]3c4ccc(OC(=O)c5ccccc5)cc4CC[C@H]3[C@@H]1CC[C@@H]2O | 0.00517 µM [rising, full curve, poor fit] | –
19 | Cc1cc(C)cc(OCC(=O)NC2=NCCS2)c1 | 2.91 µM [rising, single point] | 3.66 µM [falling, partial curve, poor fit]
20 | Cc1ccc(-c2nnc(N3CCCCC3)c3ccccc23)cc1S(=O)(=O)NCC1CCCO1 (centres undefined) | 29.1 µM [falling, single point] | –
21 | CN(CC(=O)Nc1ccc(Cl)c(C(F)(F)F)c1)C(=O)COC(=O)C1CC2CCCC(C1)C2=O (centres undefined) | 0.13 µM [rising, full curve, poor fit] | –

Row | Structure (SMILES) | AC50 [1] | AC50 [2]
22 | O=C(NNc1nc2ccccc2o1)c1ccccc1 | 3.98 µM [falling, partial curve, poor fit] | –
23 | CC1(C)C(=O)N(OCc2ccccc2)C(C)(C)C(=O)N1OCc1ccccc1 | 0.103 µM [falling, full curve, poor fit] | –
24 | Cn1ccnc1Sc1ccc(/C=N/NC(=O)c2ccccc2[N+](=O)[O-])cc1[N+](=O)[O-] | 10 µM [falling, partial curve, poor fit] | –
25 | COc1ccccc1-n1cnc2cc(C(=O)NCC3CCCO3)ccc21 (centres undefined) | 7.31 µM [falling, partial curve, poor fit] | –
26 | COc1cc(-c2nc(-c3ccc(Br)o3)no2)cc(OC)c1OC | 1.78 µM [rising, full curve, poor fit] | –
27 | CC(=O)N(Cc1ccc(F)cc1)C1=C(NCc2ccccc2)C(=O)c2ccccc2C1=O | 16.4 µM [falling, single point] | 20.6 µM [rising, partial curve, poor fit]
28 | COc1cc(/C=N/NC(=O)c2ccccc2O)ccc1OC(=O)CC1SC(=O)NC1=O (centres undefined) | 2.51 µM [falling, full curve] | –
29 | COc1ccc(-c2cc(=O)n3[nH]cnc3n2)cc1 | 15.8 µM [falling, single point] | –
30 | COc1cc2c(cc1OC)C(c1ccccc1F)OC(=O)C2 (centres undefined) | 9.2 µM [rising, partial curve, poor fit] | –
31 | O=C1c2cccc3c([N+](=O)[O-])ccc(c23)C(=O)N1Cc1cccnc1 | 15.8 µM [falling, single point] | –
32 | CCOC(=O)c1oc2cc(C)cc(O)c2c(=O)c1-c1csc(C)n1 | 2.59 µM [rising, single point] | –
33 | CCCc1nc2ccc(NC(C)=O)cc2c(=O)n1Cc1ccc(Cl)cc1 | 1 µM [rising, full curve] | –
34 | O=C(Nc1nccs1)c1ccc(N2C(=O)[C@@H]3[C@H](C2=O)[C@H]2C=C[C@@H]3C2)cc1 | 0.0891 µM [falling, full curve, poor fit] | 0.158 µM [rising, full curve]
35 | Cc1ccnc(N/C=C(\C#N)c2nc(-c3cccc(Br)c3)cs2)c1 | 29.1 µM [rising, single point] | –
36 | COc1ccc2c(c1)CCc1c(C(=O)N3CCCc4ccccc43)noc1-2 | 16.4 µM [falling, single point] | –
37 | COc1ccc2nc(N3CCOCC3)cc(C)c2c1 | 0.92 µM [rising, full curve, poor fit] | –
38 | CC(C)c1ccccc1-n1c(SCC(=O)N2CCc3ccccc3C2)nc2ccccc2c1=O | 29.1 µM [falling, single point] | –
39 | O=C(CNC(=O)c1ccccc1F)NC1=NCCS1 | 3.55 µM [rising, partial curve] | –
40 | COc1ccccc1/C=C/C(=O)NCC(=O)N/N=C/c1cc(Br)ccc1OC | 0.92 µM [rising, full curve] | –
41 | Cc1cc(O)c(C(C[N+](=O)[O-])c2ccc(Cl)cc2Cl)c(=O)o1 (centres undefined) | 29.1 µM [falling, single point] | –
42 | CCC1=Nc2cc(C(=O)NCc3ccco3)ccc2Sc2ccc(C)cc21 | 3.26 µM [rising, full curve] | 1.64 µM [falling, full curve]

Arranged by length of the SMILES (high to low): four of the compounds above
Row | Structure (SMILES) | AC50 [1] | AC50 [2]
31 | O=C1c2cccc3c([N+](=O)[O-])ccc(c23)C(=O)N1Cc1cccnc1 | 15.8 µM [falling, single point] | –
40 | COc1ccccc1/C=C/C(=O)NCC(=O)N/N=C/c1cc(Br)ccc1OC | 0.92 µM [rising, full curve] | –
36 | COc1ccc2c(c1)CCc1c(C(=O)N3CCCc4ccccc43)noc1-2 | 16.4 µM [falling, single point] | –
39 | O=C(CNC(=O)c1ccccc1F)NC1=NCCS1 | 3.55 µM [rising, partial curve] | –

(continued)

Row | Structure (SMILES) | AC50 [1] | AC50 [2]
43 | COc1ccccc1/C=C1\CCC(C2CCCC2)C1=O (centres undefined) | 12.6 µM [falling, partial curve, poor fit] | –
44 | CCN(C(=O)COC(=O)c1cc(-c2ccc(C)o2)nc2ccccc12)C1CCS(=O)(=O)C1 (centres undefined) | 25.1 µM [falling, single point] | –
45 | CCN(CC)CCC(=O)N1c2ccccc2CCc2ccc(NC(=O)OC(C)C)cc21 | 15.8 µM [falling, single point] | –
46 | C/C(CC(=O)N1CCN(C=O)CC1)=N\NC(=O)c1ccc([N+](=O)[O-])cc1 | 11.2 µM [rising, single point] | –
47 | O=C(NC(=S)Nc1ccccn1)c1ccccc1 | 12.6 µM [falling, partial curve] | 22.4 µM [falling, single point]
48 | COc1cccc(/C=C/c2ccc3cccc(O)c3n2)c1 | 35.5 µM [falling, single point] | 31.6 µM [falling, single point]
49 | Cc1onc(-c2ccccc2)c1C(=O)Nc1cccc(OC(C)C)c1 | 6.51 µM [falling, single point] | –
50 | N#Cc1c(-c2cccs2)nc(SCC(=O)c2cccs2)[nH]c1=O | 0.891 µM [falling, full curve] | –
51 | CCN(CC)C(=O)c1ccc(Oc2ccc([N+](=O)[O-])cc2Cl)cc1 | 25.1 µM [falling, single point] | –
52 | Cc1ccccc1N1CCN(S(=O)(=O)Cc2ccccc2)CC1 | 22.4 µM [rising, single point] | –
53 | O=S(=O)(Nc1cccc(-c2nc3cccnc3s2)c1)c1ccc2c(c1)OCCO2 | 16.4 µM [falling, partial curve, poor fit] | –
54 | CCOC(=O)C1CCN(c2nc(C)nc3c2oc2ccccc23)CC1 | 35.5 µM [falling, single point] | –
55 | CC(=O)c1ccc(N/N=C2/CCCNC2=O)cc1 | 0.355 µM [rising, full curve, poor fit] | –
56 | Cc1cc(C)nc(SCc2cn3c(C)cc(C)nc3n2)n1 | 6.31 µM [rising, partial curve, poor fit] | –
57 | COc1ccc(OCCCC(=O)Oc2ccc(OC)cc2)cc1 | 7.31 µM [rising, full curve, poor fit] | –
58 | Cc1ccc(N2CCN(c3ccc(C)cc3)C2c2cccnc2)cc1 | 23.1 µM [rising, single point] | –
59 | O=C(O)c1cccc(N2C(=S)N=C(Nc3ccccc3)C23CCCCC3)c1 | 14.1 µM [rising, partial curve, poor fit] | –
60 | Cc1ccc2nc(S(=O)(=O)O)[nH]c2c1 | 20 µM [rising, single point] | –
61 | Cc1ccc(S(=O)(=O)N2CCCCC2CCNC(=O)C(=O)NC2CC2)cc1 (centres undefined) | 0.461 µM [falling, full curve, poor fit] | –
62 | COc1ccc(-n2nc3cc(C)c(NC(=O)c4cccnc4)cc3n2)cc1 | 16.4 µM [falling, partial curve, poor fit] | –
